According to PubChem BioAssay AID504467 (National Center for Advancing Translational Sciences (NCATS), 2011):
The campaign covered roughly 330,000 compounds. About 7,700 (2.3%) were called active. This list was built around the results that the source calls inconclusive (neither active nor inactive); the mix of calls is not that of the screen. Calls follow the shape of the dose curve; as a rule, active = well fitted inhibition curve with a large enough effect; inconclusive = small, poorly fitted or top-dose-only effect, or effect the other way; inactive = flat fitted curve, though single readings scatter. A potency beside an inconclusive call is a rough fit, not a confirmed value.

assay: qHTS screen for small molecules that inhibit ELG1-dependent DNA repair in human embryonic kidney (HEK293T) cells expressing luciferase-tagged ELG1; conditions: HEK293T ELG1-luciferase reporter, luminescence, 16 h, DNA damage induced by 5-fluorouridine; activity change, negative = inhibition: at 46.1 µM (top of the series); also: nearly all actives have a fitted effect of over 55% in size
In short: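 5-Fluorouridine DNA damage + compound/DMSO, 2,000 cells/well, 16 h, 37 °C/5% CO2. ONE-Glo, 30 min RT, luminescence. Readout = decrease in reporter signal.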
% is scaled to controls: 0 for no effect and ±100 for the full control effect; potency is read from the fitted curve at half-maximal effect.

Row | Structure (SMILES) | activity change, negative = inhibition | Potency
1 | Cn1nnnc1SCC(=O)NCc1ccc2c(c1)OCO2 | inactive: 21.2% | 
2 | CCOc1ccc(NC(=O)c2cc3ccccc3cc2OC)cc1 |  | inconclusive: 5.62 µM [activator, partial curve, poor fit]
3 | CCCCc1nnc(NC(=O)C2CCN(c3ncnc4sc(C)c(C)c34)CC2)s1 | inactive: -23.9% | 
4 | COc1ccc(C(=O)NCc2ccc3c(c2)OCO3)c(OC)c1 |  | inconclusive: 8.2 µM [inhibitor, partial curve, poor fit]
5 | COC(=O)c1c(NC(=O)CSc2ncn[nH]2)sc(C)c1C |  | inconclusive: 25.9 µM [inhibitor, single point]
6 | COC(=O)c1ccccc1S(=O)(=O)N1CCC(C(=O)N(C)CCOc2ccccc2)CC1 | inactive: -19.5% | 
7 | COc1ccccc1-c1nc2n(n1)C(c1ccccc1Cl)C(C(N)=O)=C(C)N2 (centres undefined) |  | inconclusive: 20.6 µM [activator, single point]
8 | O=c1cc(C(F)(F)F)[nH]c2c(OC(F)(F)F)cccc12 |  | inconclusive: 29.1 µM [inhibitor, single point]
9 | COc1ccc(-n2c(SCC(=O)NCC3CCCO3)nc3c(c2=O)SCC3)cc1 (centres undefined) |  | inconclusive: 18.3 µM [activator, partial curve]
10 | CCc1nn(CC(=O)Nc2ccc(Br)c(C)c2)c(=N)s1 |  | inconclusive: 29.1 µM [inhibitor, partial curve, poor fit]
11 | O=C(CSc1nnc(-c2ccncc2)o1)Nc1ccccc1Cl |  | inconclusive: 29.1 µM [activator, single point]
12 | O=C(Cc1nc2ccccc2[nH]1)c1ccc([N+](=O)[O-])cc1 |  | inconclusive: 6.51 µM [activator, partial curve]
13 | Cc1cc(=O)oc2cc(Nc3ccccc3)ccc12 |  | inconclusive: 14.6 µM [activator, partial curve]
14 | COC(=O)c1ccc2c(c1)NC(=O)C(N1CCCC1)S2 (centres undefined) |  | inconclusive: 20.6 µM [activator, partial curve, poor fit]
15 | CC(=O)NNc1ncnc2ccccc12 |  | inconclusive: 18.4 µM [activator, single point]
16 | O=C(Nc1ccc2ccccc2c1)c1ccc(Br)o1 |  | inconclusive: 8.2 µM [activator, partial curve]
17 | N#Cc1ccc(C(=O)Nc2cc(S(=O)(=O)N3CCOCC3)ccc2N2CCCC2)cc1 | inactive: -3.86% | 
18 | Fc1ccccc1NC(=S)NCCc1ccccc1 |  | inconclusive: 11.6 µM [activator, partial curve]
19 | Oc1cccc(Nc2nc(N3CCOCC3)nc(N3CCOCC3)n2)c1 |  | inconclusive: 1.3 µM [inhibitor, full curve]
20 | Cc1cc(C)c2sc(NC(=O)c3ccc([N+](=O)[O-])o3)nc2c1 |  | inconclusive: 18.3 µM [activator, partial curve, poor fit]
21 | O=C(Nc1ccc(F)cc1)N1CCN(C/C=C/c2ccccc2)CC1 | inactive: -27.8% | 
22 | O=C(O)c1cccc(NC(=O)c2cccc(S(=O)(=O)N3CCc4ccccc43)c2)c1 |  | inconclusive: 16.4 µM [activator, partial curve, poor fit]
23 | CCOc1ccc(/C=C/C2=NNC(=O)CC2)cc1 |  | inconclusive: 18.3 µM [activator, partial curve]

Row | Structure (SMILES) | activity change, negative = inhibition | Potency
24 | COc1cc(C(=O)O/N=C(\N)c2ccccn2)cc(OC)c1OC |  | inconclusive: 20.6 µM [activator, partial curve]
25 | O=C(CSc1nncs1)Nc1ccc2c(c1)OCO2 |  | inconclusive: 29.1 µM [activator, single point]
26 | Cn1nc(-c2ccccc2)c(CN2CCN(c3ncccn3)CC2)c1Cl | inactive: -2.29% | 
27 | Cc1ccc2nc(-c3ccc(NC(=O)CN4CCN(C(=O)c5ccco5)CC4)cc3)sc2c1 |  | inconclusive: 0.794 µM [activator, full curve, poor fit]
28 | O=C(c1cn(-c2ccccc2)nc1-c1cccs1)N1CCOCC1 | inactive: 1.17% | 
29 | CCOC(=O)c1cn2nc(Oc3cccc(F)c3)ccc2n1 |  | inconclusive: 29.1 µM [activator, single point]
30 | CCOc1ccccc1C(=O)N1c2ccccc2Sc2ccccc21 |  | inconclusive: 16.4 µM [inhibitor, partial curve]
31 | COc1ccc(O)c(C(=O)c2cnn(C(=O)c3cccc(S(=O)(=O)N4CCOCC4)c3)c2)c1 | inactive: -1.35% | 
32 | COc1ccc(C(=O)Nc2ccccc2N2CCN(C(=O)c3ccccc3)CC2)cc1Br |  | active: 20.6 µM
33 | CC(=O)Nc1ccc(S(=O)(=O)Nc2ccc(S(=O)(=O)Nc3nccs3)cc2)cc1 | inactive: -3.08% | 
34 | COc1ccc(-c2n[nH]c(C)c2-c2ccc(Cl)cc2)c(O)c1 | inactive: -0.249% | 
35 | COC(=O)COc1cccc(NC(=O)c2cc(OC)cc(OC)c2)c1 | inactive: 3.09% | 
36 | O=C1CNCc2[nH]c3ccccc3c2N1c1ccccc1 | inactive: -1.36% | 
37 | C#CCOCCOCCOCCNc1nc(N2CCN(C(=O)CCCCCCCCCCNC(=O)[C@H](CCC(=O)O)n3cc(CCCCCN)nn3)CC2)nc(N2CCN(C(=O)CCCCCCCCCCNC(=O)[C@@H]([C@H](C)O)n3cc(C)nn3)CC2)n1 |  | inconclusive: 31.6 µM [inhibitor, single point]
38 | CCOc1cc(C(=O)NCCN2C(=O)S/C(=C\c3cccnc3)C2=O)cc(OCC)c1OCC |  | active: 18.4 µM
39 | CS(=O)(=O)N1CCN(c2ccc(NC(=S)NC(=O)c3ccccc3[N+](=O)[O-])cc2)CC1 | inactive: 14.3% | 
40 | COc1ccc(OC)c2[nH]c(=O)c(CCNC(=O)c3ccc(S(=O)(=O)N4CCCCC4)cc3)cc12 |  | inconclusive: 23.1 µM [inhibitor, single point]
41 | C/C(CC(=O)Nc1ccc(C)c(Cl)c1)=N\NC(=O)Cc1ccccc1 | inactive: 19.3% | 
42 | O=C(NC1CCCCC1)C(c1ccncc1)N(C(=O)c1csnn1)c1cccc(F)c1 (centres undefined) | inactive: 15.3% | 
43 | COc1ccc(Nc2nc(-c3c[nH]c4ccccc34)cs2)cc1 |  | inconclusive: 16.4 µM [activator, partial curve]
44 | COC(=O)N/N=C(\C)c1ccc2ccccc2c1OC(F)F |  | inconclusive: 23.1 µM [activator, partial curve, poor fit]
45 | COc1ccc(-n2nc3ccc(NS(C)(=O)=O)cc3n2)cc1Cl |  | inconclusive: 6.51 µM [activator, partial curve, poor fit]
46 | CCOc1ccc(N(C)S(=O)(=O)c2c[nH]c(C(=O)OC)c2)cc1 | inactive: 2.15% | 

Pulled one by one from the list above:
Row | Structure (SMILES) | activity change, negative = inhibition | Potency
37 | C#CCOCCOCCOCCNc1nc(N2CCN(C(=O)CCCCCCCCCCNC(=O)[C@H](CCC(=O)O)n3cc(CCCCCN)nn3)CC2)nc(N2CCN(C(=O)CCCCCCCCCCNC(=O)[C@@H]([C@H](C)O)n3cc(C)nn3)CC2)n1 |  | inconclusive: 31.6 µM [inhibitor, single point]
31 | COc1ccc(O)c(C(=O)c2cnn(C(=O)c3cccc(S(=O)(=O)N4CCOCC4)c3)c2)c1 | inactive: -1.35% | 

More results

Row | Structure (SMILES) | activity change, negative = inhibition | Potency
47 | Cc1ccc([N+](=O)[O-])cc1NC(=O)CN(C(=O)c1ccccc1Cl)C1CCCCC1 |  | inconclusive: 20.6 µM [inhibitor, single point]
48 | O=C(CN1CCN(c2ccc(O)cc2)CC1)NC1CCCc2ccccc21 (centres undefined) |  | inconclusive: 11.6 µM [inhibitor, partial curve, poor fit]
49 | CC(=O)c1c(C)[nH]c(C(=O)N2CCN(S(=O)(=O)c3ccc(F)c(F)c3)CC2)c1C | inactive: 8.13% | 
50 | CC(C)C1Cc2c(sc3ncnc(NN)c23)CO1 (centres undefined) |  | inconclusive: 29.1 µM [inhibitor, single point]
51 | CSc1ccccc1C(=O)OCC(=O)Nc1ccc(N2CCOCC2)cc1 |  | inconclusive: 16.4 µM [inhibitor, partial curve, poor fit]
52 | CC1CC(C)CN(C(=O)c2cc3c(s2)CCC3)C1 (centres undefined) |  | inconclusive: 18.4 µM [activator, single point]
53 | CCn1c(O)c(C=Nc2ccccc2)sc1=S |  | inconclusive: 8.2 µM [activator, partial curve]
54 | COc1ccc(C(=O)NC(=S)NNC(=O)c2cccnc2)cc1 | inactive: -26% | 
55 | COc1ccc(-c2csc(NC(=O)c3c(C)noc3C)n2)cc1 |  | inconclusive: 12.6 µM [inhibitor, partial curve]
56 | C=C(C)CNC(=O)CCc1nnc(C2(c3ccc(Cl)cc3)CCC2)o1 |  | inconclusive: 20.6 µM [activator, partial curve]
57 | CCc1ccc(NS(=O)(=O)c2ccc3[nH]cc(C(=O)N(C)Cc4ccco4)c(=O)c3c2)cc1 | inactive: 4.08% | 
58 | COc1ccccc1-c1coc2cc(OC(=O)N3CCOCC3)ccc2c1=O |  | inconclusive: 18.3 µM [activator, partial curve]
59 | CCC(=O)N1CCc2cc(Br)cc(S(=O)(=O)CCC(=O)NCCc3ccccc3)c21 | inactive: -22.6% | 
60 | CC(C)C(=O)Nc1ccc(C(=O)Nc2nnc(C(C)C)s2)cc1 |  | inconclusive: 13 µM [activator, partial curve]
61 | O=C(O)Cc1sc(NCc2ccco2)nc1-c1ccccc1 | inactive: 18.7% | 
62 | COC(=O)c1ccc(-c2ccc(C(=O)N3CCCN(C)CC3)cc2)cc1 |  | inconclusive: 23.1 µM [activator, single point]
63 | O=C(Nc1nc(-c2ccc3ccccc3c2)cs1)C1CCN(S(=O)(=O)c2cccs2)CC1 | inactive: -5.56% | 
64 | O=C(O)CCc1ccc(S(=O)(=O)Nc2ccccc2C(=O)NCCc2ccccc2)cc1 |  | inconclusive: 11.6 µM [activator, partial curve]
65 | CCCCCOc1ccc(Cl)cc1CN1CCOCC1 |  | inconclusive: 20.6 µM [activator, partial curve]
66 | CCOC1=NN(c2ccccc2)C(=O)/C1=C\N(C)C |  | inconclusive: 0.058 µM [activator, partial curve, poor fit]
67 | CCOC(=O)N1CCN(C(=O)CCn2nc(-c3ccccc3)ccc2=O)CC1 |  | inconclusive: 23.1 µM [inhibitor, single point]
68 | c1ccc(NC2=NCCCCS2)cc1 |  | inconclusive: 9.2 µM [activator, partial curve, poor fit]
69 | O=C(Cn1cc2c(n1)CCCC2)NC1CCCCCC1 |  | inconclusive: 20.6 µM [activator, single point]

Two entries from above, as labelled records.
COc1ccccc1-c1coc2cc(OC(=O)N3CCOCC3)ccc2c1=O
  Potency: inconclusive: 18.3 µM [activator, partial curve]
CCOC1=NN(c2ccccc2)C(=O)/C1=C\N(C)C
  Potency: inconclusive: 0.058 µM [activator, partial curve, poor fit]
